PubChem BioAssay AID602196 – INSERM, 2012

- Aim: 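Knock-downs that protect lung cancer cells from cisplatin or sensitise them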
- Cells: human A549 lung cancer cells
- Knock-down reagent: siRNA pair against human genes
- Time to read-out: 48 h transfection before cisplatin; time from cisplatin to read-out not stated
- Treatment: cisplatin at a dose killing half of control-siRNA cells; exact dose and duration not given
- Measurement: 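Shift in cisplatin death relative to control siRNA, from -50 (all cells die) to +50 (no cells die); siRNAs harmful on their own scored 0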
- Scale: two-siRNA summed score (-2 to +2): higher = both siRNAs protect from cisplatin killing; -2 means both sensitise
- Active means: 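Each siRNA scores 0 if harmful alone by LDH or WST-1, otherwise +1 if it reduces and -1 if it increases cisplatin killing; a gene is active when both siRNAs agree (sum +2 or -2)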
- Calls: active = both siRNAs shift cisplatin killing the same way; inactive = no consistent shift, or siRNA harmful alone
In all, the deposit lists about 23,000 reagents; this is an unselected part. 455 of all reagents (2%) count as active. 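Active includes both protection and sensitisation; some change values fall well beyond the stated -50 to +50 range.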 Not all columns of the deposit are shown. Reagent sequences are not shown. The record does not give: the amount of reagent.

GLOD4 (glyoxalase domain containing 4)
- two-siRNA summed score (-2 to +2): 0
- outcome: inactive

ELL3 (elongation factor for RNA polymerase II 3)
- two-siRNA summed score (-2 to +2): 0
- outcome: inactive

MAPK3 (mitogen-activated protein kinase 3)
- two-siRNA summed score (-2 to +2): -1
- outcome: inactive

OR51M1 (olfactory receptor family 51 subfamily M member 1)
- two-siRNA summed score (-2 to +2): 1
- outcome: inactive

STK17A (serine/threonine kinase 17a)
- two-siRNA summed score (-2 to +2): 1
- outcome: inactive

BBS9 (Bardet-Biedl syndrome 9)
- two-siRNA summed score (-2 to +2): 0
- outcome: inactive

SPATA6 (spermatogenesis associated 6)
- two-siRNA summed score (-2 to +2): 0
- outcome: inactive

SHLD2 (shieldin complex subunit 2)
- two-siRNA summed score (-2 to +2): 0
- outcome: inactive

RXFP4 (relaxin family peptide/INSL5 receptor 4)
- two-siRNA summed score (-2 to +2): 0
- outcome: inactive

PAGR1 (PAXIP1 associated glutamate rich protein 1)
- two-siRNA summed score (-2 to +2): 0
- outcome: inactive

SMURF2 (SMAD specific E3 ubiquitin protein ligase 2)
- two-siRNA summed score (-2 to +2): 0
- outcome: inactive

POLR2J (RNA polymerase II subunit J)
- two-siRNA summed score (-2 to +2): 0
- outcome: inactive

SLCO2B1
- two-siRNA summed score (-2 to +2): 0
- outcome: inactive

ACAT1 (acetyl-CoA acetyltransferase 1)
- two-siRNA summed score (-2 to +2): -1
- outcome: inactive

PSMD1 (proteasome 26S subunit, non-ATPase 1)
- two-siRNA summed score (-2 to +2): -1
- outcome: inactive

LINC01010 (long independently transcribed non-coding RNA 1010)
- two-siRNA summed score (-2 to +2): 0
- outcome: inactive

RCC1L (RCC1 like)
- two-siRNA summed score (-2 to +2): -1
- outcome: inactive

PCDHB16 (protocadherin beta 16)
- two-siRNA summed score (-2 to +2): 0
- outcome: inactive

ITGB3 (integrin subunit beta 3)
- two-siRNA summed score (-2 to +2): -1
- outcome: inactive

NOTCH4 (notch receptor 4)
- two-siRNA summed score (-2 to +2): 1
- outcome: inactive

KRTCAP2 (keratinocyte associated protein 2)
- two-siRNA summed score (-2 to +2): 0
- outcome: inactive

SEPHS1 (selenophosphate synthetase 1)
- two-siRNA summed score (-2 to +2): 0
- outcome: inactive

XRCC1 (X-ray repair cross complementing 1)
- two-siRNA summed score (-2 to +2): 0
- outcome: inactive

EIF2B3 (eukaryotic translation initiation factor 2B subunit gamma)
- two-siRNA summed score (-2 to +2): 0
- outcome: inactive

ZNF22 (zinc finger protein 22)
- two-siRNA summed score (-2 to +2): 1
- outcome: inactive

RNASEH2C (ribonuclease H2 subunit C)
- two-siRNA summed score (-2 to +2): 0
- outcome: inactive

LOC442675
- two-siRNA summed score (-2 to +2): 1
- outcome: inactive

CLDN4 (claudin 4)
- two-siRNA summed score (-2 to +2): 1
- outcome: inactive

CHAC2 (ChaC glutathione specific gamma-glutamylcyclotransferase 2)
- two-siRNA summed score (-2 to +2): 1
- outcome: inactive

LOC391130
- two-siRNA summed score (-2 to +2): 0
- outcome: inactive

LOC441103
- two-siRNA summed score (-2 to +2): 0
- outcome: inactive
